Results on two molecules are retold here after publication PMC3625227.

Protein sequences, listed by entry. Tags and fused reporters are not part of them. Residues count along the entry.
UniProt P26660, residues 384-750: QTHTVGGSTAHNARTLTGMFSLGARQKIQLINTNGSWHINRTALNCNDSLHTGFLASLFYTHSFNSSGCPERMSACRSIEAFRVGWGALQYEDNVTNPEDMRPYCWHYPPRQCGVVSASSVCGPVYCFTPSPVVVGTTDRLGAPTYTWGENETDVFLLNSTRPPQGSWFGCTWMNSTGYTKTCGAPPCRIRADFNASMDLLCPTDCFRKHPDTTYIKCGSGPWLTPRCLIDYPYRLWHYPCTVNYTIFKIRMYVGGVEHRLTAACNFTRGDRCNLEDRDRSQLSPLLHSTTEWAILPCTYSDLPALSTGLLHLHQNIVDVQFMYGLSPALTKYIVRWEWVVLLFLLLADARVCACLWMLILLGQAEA
UniProt P08962: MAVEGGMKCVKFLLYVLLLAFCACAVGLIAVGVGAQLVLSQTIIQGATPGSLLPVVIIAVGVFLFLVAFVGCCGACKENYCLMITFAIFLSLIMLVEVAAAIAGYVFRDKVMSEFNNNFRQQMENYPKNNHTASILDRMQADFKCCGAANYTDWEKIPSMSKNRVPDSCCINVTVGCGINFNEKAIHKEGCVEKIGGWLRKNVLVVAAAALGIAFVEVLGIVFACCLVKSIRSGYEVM

No constants are given. Whether binding was seen depends on the method and setting. In cells and extracts the contact can be indirect. Some entries that bind do so weakly or less than the wild type.

The experiment has as its target HCV E2 protein with a FLAG tag, from JC1 E2 FLAG virus (hepatitis C virus (Jc1)) (UniProt P26660). Briefly: co-IP; anti-FLAG monoclonal antibody on agarose resin with lysates of Huh 7.5.1 cells infected with JC1 E2 FLAG virus (MOI 0.3, 72 hrs); Triton lysis buffer (40 mM HEPES pH 7.5, 100 mM KCl, 1 mM EDTA, 1 mM PMSF, 0.1% Triton X-100); 4°C, 2 hrs; Western blotting. (In general: In western blotting, separated proteins are transferred to a membrane and probed.)

For “CD63 (endogenous) (from UniProt P08962 1-238)”, the binding result is given as “binds”.

B1: CD81 (endogenous) (protein, UniProt P60033 1-236)
chain: MGVEGCTKCIKYLLFVFNFVFWLAGGVILGVALWLRHDPQTTNLLYLELGDKPAPNTFYVGIYILIAVGAVMMFVGFLGCYGAIQESQCLLGTFFTCLVILFACEVAAGIWGFVNKDQIAKDVKQFYDQALQQAVVDDDANNAKAVVKTFHETLDCCGSSTLTALTTSVLKNNLCPSGSNIISNLFKEDCHQKIDDLFSGKLYLIGIAAIVVAVIMIFEMILSMVLCCGIRNSSVY
B1: the binding entry was “binds”.
